Source: publication PMC7449927
These are yes or no findings as the source states them, for the method shown. In cells and extracts the contact can be indirect. Some binding calls cover weakened binding; strength is not graded here.

Target: T1, O-GlcNAc transferase (OGT) (human (endogenous in HCC cells)) (UniProt O15294)
T1 sequence: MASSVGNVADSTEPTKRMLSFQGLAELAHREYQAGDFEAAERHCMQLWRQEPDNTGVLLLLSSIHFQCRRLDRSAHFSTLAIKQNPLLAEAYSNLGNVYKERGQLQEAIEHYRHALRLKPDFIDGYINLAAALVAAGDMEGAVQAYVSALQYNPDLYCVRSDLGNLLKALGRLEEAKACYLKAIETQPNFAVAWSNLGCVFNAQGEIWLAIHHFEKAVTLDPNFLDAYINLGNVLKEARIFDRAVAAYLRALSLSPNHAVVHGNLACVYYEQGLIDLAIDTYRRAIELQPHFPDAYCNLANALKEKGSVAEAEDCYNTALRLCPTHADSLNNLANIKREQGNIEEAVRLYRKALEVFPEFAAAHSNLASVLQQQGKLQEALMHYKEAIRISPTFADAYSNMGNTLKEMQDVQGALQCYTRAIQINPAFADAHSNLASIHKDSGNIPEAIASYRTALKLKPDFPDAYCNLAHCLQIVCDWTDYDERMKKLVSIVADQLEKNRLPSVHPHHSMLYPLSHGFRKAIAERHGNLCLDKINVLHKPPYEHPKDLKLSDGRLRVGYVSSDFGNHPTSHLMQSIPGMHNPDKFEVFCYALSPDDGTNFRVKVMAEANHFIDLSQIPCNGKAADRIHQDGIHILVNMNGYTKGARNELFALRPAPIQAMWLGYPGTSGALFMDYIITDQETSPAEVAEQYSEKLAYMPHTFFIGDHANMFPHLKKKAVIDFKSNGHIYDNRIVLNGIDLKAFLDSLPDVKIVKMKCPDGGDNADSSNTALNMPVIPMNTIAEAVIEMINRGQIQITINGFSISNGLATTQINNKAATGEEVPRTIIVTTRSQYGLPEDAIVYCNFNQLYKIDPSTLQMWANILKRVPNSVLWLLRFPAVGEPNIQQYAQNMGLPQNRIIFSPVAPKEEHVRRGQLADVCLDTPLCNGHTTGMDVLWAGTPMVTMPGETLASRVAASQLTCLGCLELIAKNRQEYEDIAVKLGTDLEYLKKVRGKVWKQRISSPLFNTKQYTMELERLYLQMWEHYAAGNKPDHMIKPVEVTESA
Test: co-IP; endogenous proteins in HCC cell lysate (IP lysis buffer, sonicated); IP with anti-OGT, blot anti-SIX1, and the reverse (IP anti-SIX1, blot anti-OGT); magnetic beads, 4 °C overnight, PBS washes

binding: binds
B1: Sine oculis homeobox homolog 1 (SIX1) (protein, UniProt Q15475 1-284)
chain: MSMLPSFGFTQEQVACVCEVLQQGGNLERLGRFLWSLPACDHLHKNESVLKAKAVVAFHRGNFRELYKILESHQFSPHNHPKLQQLWLKAHYVEAEKLRGRPLGAVGKYRVRRKFPLPRTIWDGEETSYCFKEKSRGVLREWYAHNPYPSPREKRELAEATGLTTTQVSNWFKNRRQRDRAAEAKERENTENNNSSSNKQNQLSPLEGGKPLMSSSEEEFSPPQSPDQNSVLLLQGNMGHARSSNYSLPGLTASQPSHGLQTHQHQLQDSLLGPLTSSLVDLGS
